Test results reported in the supplement of paper PMC8728848.
The list shows a part of the results.

What was measured:
Assay in all cases: glycan array binding signal (z-score within array); higher = stronger binding
Conditions in all cases: glycan notation: IUPAC condensed, linker removed
[1] = biological target: Fuc(a1-2)Gal
Summary of the method: (§1)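 The Consortium for Functional Glycomics database supplied 3228 glycan arrays, of which those lacking an available protein sequence were dropped. The binding signal, a within-array Z-score, was averaged across arrays of the same protein sequence and across linkers. Negative scores can be read as non-binding.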

[2] = biological target: Fuc(a1-2)Gal(b1-3)GalNAc
Summary of the method: as §1

[3] = biological target: Fuc(a1-2)Gal(b1-3)GalNAc(a1-3)[Fuc(a1-2)]Gal(b1-4)Glc
Summary of the method: as §1

[4] = biological target: Fuc(a1-2)Gal(b1-3)GalNAc(a1-3)[Fuc(a1-2)]Gal(b1-4)GlcNAc
Summary of the method: as §1

[5] = biological target: Fuc(a1-2)Gal(b1-3)GalNAc(b1-3)Gal
Summary of the method: as §1

[6] = biological target: Fuc(a1-2)Gal(b1-3)GalNAc(b1-3)Gal(a1-4)Gal(b1-4)Glc
Summary of the method: as §1

[7] = biological target: Fuc(a1-2)Gal(b1-3)GalNAc(b1-4)[Neu5Ac(a2-3)]Gal(b1-4)Glc
Summary of the method: as §1

[8] = biological target: Fuc(a1-2)Gal(b1-3)GlcNAc
Summary of the method: as §1

[9] = biological target: Fuc(a1-2)Gal(b1-3)GlcNAc(b1-2)Man(a1-3)[Fuc(a1-2)Gal(b1-3)GlcNAc(b1-2)Man(a1-6)]Man(b1-4)GlcNAc(b1-4)GlcNAc
Summary of the method: as §1

[10] = biological target: Fuc(a1-2)Gal(b1-3)GlcNAc(b1-2)Man(a1-3)[Fuc(a1-2)Gal(b1-3)GlcNAc(b1-2)Man(a1-6)]Man(b1-4)GlcNAc(b1-4)[Fuc(a1-6)]GlcNAc
Summary of the method: as §1

[11] = biological target: Fuc(a1-2)Gal(b1-3)GlcNAc(b1-3)Gal(b1-4)Glc
Summary of the method: as §1

[12] = biological target: Fuc(a1-2)Gal(b1-3)GlcNAc(b1-3)GalNAc
Summary of the method: as §1

[13] = biological target: Fuc(a1-2)Gal(b1-3)GlcNAc(b1-3)[Fuc(a1-2)Gal(b1-3)GlcNAc(b1-6)]GalNAc
Summary of the method: as §1

[14] = biological target: Fuc(a1-2)Gal(b1-3)GlcNAc(b1-3)[Gal(b1-4)GlcNAc(b1-6)]Gal(b1-4)Glc
Summary of the method: as §1

[15] = biological target: Fuc(a1-2)Gal(b1-3)GlcNAc(b1-3)[Neu5Ac(a2-6)Gal(b1-4)GlcNAc(b1-6)]Gal(b1-4)Glc
Summary of the method: as §1

[16] = biological target: Fuc(a1-2)Gal(b1-3)GlcNAc6S
Summary of the method: as §1

[17] = biological target: Fuc(a1-2)Gal(b1-3)[Fuc(a1-4)]GlcNAc
Summary of the method: as §1

[18] = biological target: Fuc(a1-2)Gal(b1-3)[Fuc(a1-4)]GlcNAc(b1-2)Man(a1-3)[Fuc(a1-2)Gal(b1-3)[Fuc(a1-4)]GlcNAc(b1-2)Man(a1-3)]Man(b1-4)GlcNAc(b1-4)GlcNAc
Summary of the method: as §1

[19] = biological target: Fuc(a1-2)Gal(b1-3)[Fuc(a1-4)]GlcNAc(b1-2)Man(a1-3)[Fuc(a1-2)Gal(b1-3)[Fuc(a1-4)]GlcNAc(b1-2)Man(a1-6)]Man(b1-4)GlcNAc(b1-4)[Fuc(a1-6)]GlcNAc(b1-4)[Fuc(a1-6)]GlcNAc
Summary of the method: as §1

[20] = biological target: Fuc(a1-2)Gal(b1-3)[Fuc(a1-4)]GlcNAc(b1-3)[Fuc(a1-3)[Gal(b1-4)]GlcNAc(b1-6)]Gal(b1-4)Glc
Summary of the method: as §1

[21] = biological target: Fuc(a1-2)Gal(b1-3)[Fuc(a1-4)]GlcNAc(b1-3)[Gal(b1-4)GlcNAc(b1-6)]Gal(b1-4)Glc
Summary of the method: as §1

[22] = biological target: Fuc(a1-2)Gal(b1-4)Glc
Summary of the method: as §1

[23] = biological target: Fuc(a1-2)Gal(b1-4)Glc6S
Summary of the method: as §1

[24] = biological target: Fuc(a1-2)Gal(b1-4)GlcNAc
Summary of the method: as §1

[25] = biological target: Fuc(a1-2)Gal(b1-4)GlcNAc(b1-2)Man
Summary of the method: as §1

[26] = biological target: Fuc(a1-2)Gal(b1-4)GlcNAc(b1-2)Man(a1-3)[Fuc(a1-2)Gal(b1-4)GlcNAc(b1-2)Man(a1-6)]Man(b1-4)GlcNAc(b1-4)GlcNAc
Summary of the method: as §1

[27] = biological target: Fuc(a1-2)Gal(b1-4)GlcNAc(b1-2)Man(a1-3)[Fuc(a1-2)Gal(b1-4)GlcNAc(b1-2)Man(a1-6)]Man(b1-4)GlcNAc(b1-4)[Fuc(a1-6)]GlcNAc
Summary of the method: as §1

[28] = biological target: Fuc(a1-2)Gal(b1-4)GlcNAc(b1-2)[Fuc(a1-2)Gal(b1-4)GlcNAc(b1-4)]Man(a1-3)[Fuc(a1-2)Gal(b1-4)GlcNAc(b1-2)Man(a1-6)]Man(b1-4)GlcNAc(b1-4)GlcNAc
Summary of the method: as §1

[29] = biological target: Fuc(a1-2)Gal(b1-4)GlcNAc(b1-3)Gal(b1-4)GlcNAc
Summary of the method: as §1

[30] = biological target: Fuc(a1-2)Gal(b1-4)GlcNAc(b1-3)Gal(b1-4)GlcNAc(b1-2)Man(a1-3)[Fuc(a1-2)Gal(b1-4)GlcNAc(b1-3)Gal(b1-4)GlcNAc(b1-2)Man(a1-6)]Man(b1-4)GlcNAc(b1-4)GlcNAc
Summary of the method: as §1

B1: PX9961KLbvu-535-38-535 (Bacteroides vulgatus) (protein)
chain: DKAYTDAESYTKGLHKIYSVWALSGQDGSSSSDISGLDAGNTALLRCWWTLQEQPTDEMKNAWNDAWCTEVNYMTWTTNKVEPIEGVYQRCMYIVALVNEFLKNIPNAPESIDKESYIAQARFNRAFAYYVLMDMFALPPFITEKNYSIEPAPLSREDLFNWIEAELNEIKPNLPSPRSEYGVADQAVASALLARMYLNAEIYTGKARYTECINACNEVIKAGYQLADNYADLFKADNGENPDTKKEIIYPIIFDGDKTQSWGMAAIIIGARGAEDKDVLLAHSGVDQGWAGFRATSNLVHLFDFQNDEEPKASEIQDKRGIFYDKGRSIDITSSVSGTFETEGWSVFKFSNLNSNGQPGKNTLWVDTDFPMFRLGDIYLMYAEAVARGGEGSKASAVEYINALRKRAYGDDKHNISENWLEENNFRNLLDERGRELYWEGIRRTDLVRFDLLTSGSYTWDFKGGINTGVGVNKRYNVYPIPVTDLTVNGNLQQNEGY
[1]
  glycan array binding signal (z-score): 0.633
[2]
  glycan array binding signal (z-score): 0.513
[3]
  glycan array binding signal (z-score): 0.548
[4]
  glycan array binding signal (z-score): -0.462
[5]
  glycan array binding signal (z-score): -0.097
[6]
  glycan array binding signal (z-score): -0.926
[7]
  glycan array binding signal (z-score): -0.183
[8]
  glycan array binding signal (z-score): 0.03
[9]
  glycan array binding signal (z-score): 0.87
[10]
  glycan array binding signal (z-score): 0.001
[11]
  glycan array binding signal (z-score): -0.378
[12]
  glycan array binding signal (z-score): 1.02
[13]
  glycan array binding signal (z-score): 0.03
[14]
  glycan array binding signal (z-score): -0.255
[15]
  glycan array binding signal (z-score): 0.204
[16]
  glycan array binding signal (z-score): 0.498
[17]
  glycan array binding signal (z-score): -0.042
[18]
  glycan array binding signal (z-score): -0.623
[19]
  glycan array binding signal (z-score): 0.332
[20]
  glycan array binding signal (z-score): -0.661
[21]
  glycan array binding signal (z-score): -0.812
[22]
  glycan array binding signal (z-score): -0.031
[23]
  glycan array binding signal (z-score): -0.986
[24]
  glycan array binding signal (z-score): -0.803
[25]
  glycan array binding signal (z-score): 0.5
[26]
  glycan array binding signal (z-score): 0.043
[27]
  glycan array binding signal (z-score): 0.549
[28]
  glycan array binding signal (z-score): 2.87
[29]
  glycan array binding signal (z-score): -0.646
[30]
  glycan array binding signal (z-score): 0.9
